Literature values in US11666644B2, “Peptide vaccines” (TREOS BIO LIMITED, priority 2018, dated 2023).

System: breast cancer antigens
Details: expression of the peptide's target antigen in breast cancers, as reported in publications; cited from earlier work

Point of comparison: “PBRC01_cP5 (DVKEVDPTSHSYVLVTSLNL; PBRC01_cP5 MAGE-A11)”, “Antigen Expression” value 59%. Against it:
- PBRC01_cP10 (EYEREETRQVYMDLNNNIEK; PBRC01_cP10 SCP-1) — lower, 38%
- PBRC01_cP12 (DSESSFTYTLDEKVAELVEF; PBRC01_cP12 MAGE-C2) — lower, 21%
- PBRC01_cP2 (FDRNTESLFEELSSAGSGLI; PBRC01_cP2 SPAG9) — higher, 88%
- PBRC01_cP4 (SAVFHERYALIQHQKTHKNE; PBRC01_cP4 BORIS) — higher, 71%
- PBRC01_cP7 (MASFRKLTLSEKVPPNHPSR; PBRC01_cP7 HOM-TES-85) — lower, 47%
- PBRC01_cP9 (VDPAQLEFMFQEALKLKVAE; PBRC01_cP9 MAGE-A9) — lower, 44%
- PBRC01_cP8 (KRASQYSGQLKVLIAENTML; PBRC01_cP8 NY-BR-1) — lower, 47%
- PBRC01_cP11 (PEIFGKASESLQLVFGIDVK; PBRC01_cP11 MAGE-A1) — lower, 37%
- PBRC01_cP1 (ISDTKDYFMSKTLGIGRLKR; PBRC01_cP1 FSIP1) — lower, 49%
- PBRC01_cP6 (ENAHGQSLEEDSALEALLNF; PBRC01_cP6 NY-SAR-35) — lower, 49%
- PBRC01_cP3 (SQKMDMSNIVLMLIQKLLNE; PBRC01_cP3 AKAP4) — higher, 85%

System: bladder cancer
Details: Antigen expression frequency in bladder cancers (source antigen of the epitope); cited from earlier work

Point of comparison: “278 (FSYTLLSLF; MAGE-C1 9mer) [compound 278]”, “Antigen N %” value 27%. Against it:
- 274 (MIMENIQEL; OY-TES-1 9mer) [compound 274] — higher, 28%
- 270 (FQMPHQEIV; PIWIL2 9mer) [compound 270] — higher, 82%
- 285 (AIWEALSVM; MAGE-A8 9mer) [compound 285] — higher, 57%
- 271 (FLLTSFPTF; CTAGE1 9mer) [compound 271] — higher, 53%
- 268 (FVASINLTL; PIWIL2 9mer) [compound 268] — higher, 82%
- 293 (MASESLSVM; MAGE-C2 9mer) [compound 293] — lower, 19%
- 294 (FVYGEPREL; MAGE-C2 9mer) [compound 294] — lower, 19%
- 277 (RAIEQLAAM; SURVIVIN 9mer) [compound 277] — higher, 62%
- 289 (STFKNWPFL; SURVIVIN 9mer) [compound 289] — higher, 62%
- 283 (FTVSGNLLF; LAGE-1 9mer) [compound 283] — higher, 30%
- 276 (RLLEFYLAM; NY-ESO-1 9mer) [compound 276] — higher, 31%
- 280 (YVDEKAPEF; EpCAM 9mer) [compound 280] — higher, 54%
- 287 (KVAELVRFL; MAGE-A8 9mer) [compound 287] — higher, 57%
- 272 (FMFQEALKL; MAGE-A9 9mer) [compound 272] — higher, 61%
- 292 (TSYVKVLEY; MAGE-A1 9mer) [compound 292] — higher, 34%
- 279 (FLFGGNNFI; CTAGE1 9mer) [compound 279] — higher, 53%
- 286 (LQMSNFVNL; HAGE 9mer) [compound 286] — lower, 24%
- 273 (RTYWIIIEL; EpCAM 9mer) [compound 273] — higher, 54%
- 297 (LQLHITMPF; LAGE-1 9mer) [compound 297] — higher, 30%
- 281 (FAHPRKLLM; MAGE-A2 9mer) [compound 281] — lower, 25%
- 269 (FYDPTSAMV; PIWIL2 9mer) [compound 269] — higher, 82%
- 290 (FSTTINYTL; MAGE-A2 9mer) [compound 290] — lower, 25%
- 282 (YVFVNTLDL; MAGE-C1 9mer) [compound 282] — the same, 27%
- 295 (YEDHFPLLF; MAGE-A10 9mer) [compound 295] — higher, 28%
- 275 (SSISVYYTL; MAGE-A9 9mer) [compound 275] — higher, 61%

System: melanoma
Details: Antigen expression frequency in melanomas (source antigen of the epitope); cited from earlier work

Point of comparison: “182 (RAIEQLAAM; Survivin 9mer) [compound 182]”, “Antigen N %” value 96%. Against it:
- 207 (RALAETSYV; MAGE-A1 9mer) [compound 207] — lower, 37%
- 204 (AMDAIFGSL; MAGE-A11 9mer) [compound 204] — lower, 54%
- 180 (KAMVQAWPF; PRAME 9mer) [compound 180] — lower, 90%
- 192 (MASESLSVM; MAGE-C2 9mer) [compound 192] — lower, 45%
- 191 (RLLEFYLAM; Ny-ESO-1 9mer) [compound 191] — lower, 38%
- 183 (FSSTLVSLF; MAGE-C1 9mer) [compound 183] — lower, 45%
- 198 (STFKNWPFL; Survivin 9mer) [compound 198] — the same, 96%
- 199 (HSYVLVTSL; MAGE-A11 9mer) [compound 199] — lower, 54%
- 200 (MTFGRLHRI; SSX-1 9mer) [compound 200] — lower, 25%
- 187 (FSYTLASLL; MAGE-C1 9mer) [compound 187] — lower, 45%
- 195 (FTSSRMSSF; BORIS 9mer) [compound 195] — lower, 27%
- 202 (FSTSSSLIL; MAGE-C2 9mer) [compound 202] — lower, 45%
- 184 (FSTTINYTL; MAGE-A2 9mer) [compound 184] — lower, 61%
- 206 (YAGREHFLF; MAGE-A11 9mer) [compound 206] — lower, 54%
- 205 (YEDHFPLLF; MAGE-A10 9mer) [compound 205] — lower, 44%
- 179 (FAHPRKLLM; MAGE-A2 9mer) [compound 179] — lower, 61%
- 189 (MTSSFSSTL; MAGE-C1 9mer) [compound 189] — lower, 45%
- 193 (FVYGEPREL; MAGE-C2 9mer) [compound 193] — lower, 45%
- 188 (YIAQFTSQF; PRAME 9mer) [compound 188] — lower, 90%
- 181 (FSYTLLSLF; MAGE-C1 9mer) [compound 181] — lower, 45%
- 186 (YVFVNTLDL; MAGE-C1 9mer) [compound 186] — lower, 45%
- 196 (FTVSGNLLF; LAGE-1 9mer) [compound 196] — lower, 35%
- 190 (HVMNPLETL; PRAME 9mer) [compound 190] — lower, 90%

System: ovarian cancer antigens
Details: expression of the peptide's target antigen in ovarian cancers, as reported in publications; cited from earlier work

Point of comparison: “POC01_P1 (NSLQKQLQAVLQWIAASQFN; POC01_P1 AKAP4)”, “Antigen Expression” value 89%. Against it:
- POC01_P7 (RRSIAGFVASINEGMTRWFS; POC01_P7 HIWI) — lower, 63%
- POC01_P12a (DVKEVDPTGHSFVLVTSLGL; POC01_P12a MAGE-A10) — lower, 52%
- POC01_P5 (AYFESLLEKREKTNFDPAEW; POC01_P5 SP17) — lower, 69%
- POC01_P8 (MQDIKMILKMVQLDSIEDLE; POC01_P8 PRAME) — lower, 60%
- POC01_P11 (ETSYEKVINYLVMLNAREPI; POC01_P11 MAGE-A9) — lower, 37%
- POC01_P2 (SGDERSDEIVLTVSNSNVEE; POC01_P2 BORIS) — lower, 82%
- P0C01_P12b (SAQLLQARLMKEESPVVSWR) — lower, 30%
- POC01_P3 (VQKEDGRVQAFGWSLPQKYK; POC01_P3 SPAG9) — lower, 76%
- POC01_P6 (PSQASSGQARMFPNAPYLPS; POC01_P6 WT1) — lower, 63%
- POC01_P9 (ANSVVSDMMVSIMKTLKIQV; POC01_P9 AKAP-3) — lower, 58%
- POC01_P10 (REALSNKVDELAHFLLRKYR; POC01_P10 MAGE-A4) — lower, 37%
- POC01_P4 (EVESTPMIMENIQELIRSAQ; POC01_P4 OY-TES-1) — lower, 75%
